This is one part of the list.
Legend:
Assay in all cases: log2 fold change, soluble protein after heating vs DMSO (PISA); higher = thermal stabilisation; K562 lysate, 10 uM; active = over 0.2 and 3.5 SD of the protein, either way, in both replicates (recomputed)
erlotinib = compound: C#Cc1cccc(Nc2ncnc3cc(OCCOC)c(OCCOC)cc23)c1 [erlotinib]
In short: (§1)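 K562 pellets were dounce-homogenised in PBS pH 7.4 with 1 mM MgCl2, and the crude extract at 1 mg/mL protein was treated with 10 μM compound for 30 min. Aliquots were heated for 3 min across 48°C-58°C, pooled, and brought to 0.5% NP-40 at 4°C; soluble protein was the supernatant after 21,000xg for 90 min. Soluble protein was quantified by TMTpro 16plex LC-MS/MS with channel sums equalised, and reported as log2 fold change in thermal stability against DMSO controls, with values from duplicates.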

Amino acid sequences for entries named in this document (tags omitted). A change or cut given only in a name is not applied to a line headed by its entry.
UniProt Q9Y3A5: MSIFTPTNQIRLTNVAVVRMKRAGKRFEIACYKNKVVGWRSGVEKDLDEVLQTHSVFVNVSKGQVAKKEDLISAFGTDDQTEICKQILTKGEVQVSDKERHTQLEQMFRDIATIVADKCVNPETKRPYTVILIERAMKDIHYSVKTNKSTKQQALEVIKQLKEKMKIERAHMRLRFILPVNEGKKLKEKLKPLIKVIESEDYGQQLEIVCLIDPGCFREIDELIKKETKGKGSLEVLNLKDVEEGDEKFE
UniProt Q9HCN8: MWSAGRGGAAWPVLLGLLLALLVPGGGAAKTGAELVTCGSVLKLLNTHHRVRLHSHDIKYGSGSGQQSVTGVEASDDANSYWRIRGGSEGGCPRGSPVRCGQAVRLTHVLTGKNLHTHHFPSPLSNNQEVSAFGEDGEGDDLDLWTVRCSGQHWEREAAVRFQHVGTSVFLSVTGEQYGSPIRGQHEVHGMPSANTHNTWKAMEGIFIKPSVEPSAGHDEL
UniProt P53992: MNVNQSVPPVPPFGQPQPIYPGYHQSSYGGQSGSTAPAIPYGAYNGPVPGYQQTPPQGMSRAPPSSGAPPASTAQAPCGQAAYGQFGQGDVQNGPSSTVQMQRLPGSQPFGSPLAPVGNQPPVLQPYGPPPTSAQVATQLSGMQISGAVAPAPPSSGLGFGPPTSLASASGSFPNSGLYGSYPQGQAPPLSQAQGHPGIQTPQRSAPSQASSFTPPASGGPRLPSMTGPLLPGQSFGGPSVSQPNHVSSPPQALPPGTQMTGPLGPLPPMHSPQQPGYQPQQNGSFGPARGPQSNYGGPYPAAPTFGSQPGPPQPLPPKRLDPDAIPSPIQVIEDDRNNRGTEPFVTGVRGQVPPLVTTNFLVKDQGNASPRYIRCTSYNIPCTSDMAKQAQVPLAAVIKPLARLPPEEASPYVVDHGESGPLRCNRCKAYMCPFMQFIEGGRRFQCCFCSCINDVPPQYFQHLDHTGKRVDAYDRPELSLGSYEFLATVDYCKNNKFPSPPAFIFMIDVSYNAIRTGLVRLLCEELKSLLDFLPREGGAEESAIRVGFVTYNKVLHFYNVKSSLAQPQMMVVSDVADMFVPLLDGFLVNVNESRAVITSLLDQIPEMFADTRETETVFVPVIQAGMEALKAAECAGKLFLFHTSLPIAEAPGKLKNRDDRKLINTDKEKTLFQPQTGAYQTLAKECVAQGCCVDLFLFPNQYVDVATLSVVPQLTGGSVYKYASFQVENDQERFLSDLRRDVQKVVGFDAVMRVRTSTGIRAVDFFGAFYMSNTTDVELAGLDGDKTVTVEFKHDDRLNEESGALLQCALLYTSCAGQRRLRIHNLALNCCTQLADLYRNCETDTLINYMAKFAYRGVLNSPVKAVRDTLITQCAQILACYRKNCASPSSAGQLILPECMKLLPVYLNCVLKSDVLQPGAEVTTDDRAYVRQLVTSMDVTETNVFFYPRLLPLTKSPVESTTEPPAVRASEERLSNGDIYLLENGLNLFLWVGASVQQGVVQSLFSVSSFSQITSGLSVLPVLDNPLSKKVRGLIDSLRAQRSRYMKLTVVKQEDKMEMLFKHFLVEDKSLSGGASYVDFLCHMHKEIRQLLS
UniProt Q96LD8: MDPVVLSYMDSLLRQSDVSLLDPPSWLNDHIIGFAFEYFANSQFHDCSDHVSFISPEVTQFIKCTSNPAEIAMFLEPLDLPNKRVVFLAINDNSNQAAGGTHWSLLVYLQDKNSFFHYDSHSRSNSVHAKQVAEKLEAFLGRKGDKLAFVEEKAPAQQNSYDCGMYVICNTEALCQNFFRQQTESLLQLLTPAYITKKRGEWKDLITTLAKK
UniProt Q969E2: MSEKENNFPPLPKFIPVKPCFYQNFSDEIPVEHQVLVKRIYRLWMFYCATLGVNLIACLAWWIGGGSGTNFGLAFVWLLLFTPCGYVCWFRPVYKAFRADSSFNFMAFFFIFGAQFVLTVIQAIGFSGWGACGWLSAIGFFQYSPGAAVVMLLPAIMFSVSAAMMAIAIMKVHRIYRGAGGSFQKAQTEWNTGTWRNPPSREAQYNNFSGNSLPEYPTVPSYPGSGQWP
UniProt Q99643: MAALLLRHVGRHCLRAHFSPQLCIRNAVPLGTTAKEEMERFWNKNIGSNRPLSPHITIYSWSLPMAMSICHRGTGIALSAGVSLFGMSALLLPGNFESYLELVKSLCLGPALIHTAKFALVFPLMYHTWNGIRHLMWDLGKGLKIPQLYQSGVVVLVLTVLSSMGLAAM
UniProt O95104: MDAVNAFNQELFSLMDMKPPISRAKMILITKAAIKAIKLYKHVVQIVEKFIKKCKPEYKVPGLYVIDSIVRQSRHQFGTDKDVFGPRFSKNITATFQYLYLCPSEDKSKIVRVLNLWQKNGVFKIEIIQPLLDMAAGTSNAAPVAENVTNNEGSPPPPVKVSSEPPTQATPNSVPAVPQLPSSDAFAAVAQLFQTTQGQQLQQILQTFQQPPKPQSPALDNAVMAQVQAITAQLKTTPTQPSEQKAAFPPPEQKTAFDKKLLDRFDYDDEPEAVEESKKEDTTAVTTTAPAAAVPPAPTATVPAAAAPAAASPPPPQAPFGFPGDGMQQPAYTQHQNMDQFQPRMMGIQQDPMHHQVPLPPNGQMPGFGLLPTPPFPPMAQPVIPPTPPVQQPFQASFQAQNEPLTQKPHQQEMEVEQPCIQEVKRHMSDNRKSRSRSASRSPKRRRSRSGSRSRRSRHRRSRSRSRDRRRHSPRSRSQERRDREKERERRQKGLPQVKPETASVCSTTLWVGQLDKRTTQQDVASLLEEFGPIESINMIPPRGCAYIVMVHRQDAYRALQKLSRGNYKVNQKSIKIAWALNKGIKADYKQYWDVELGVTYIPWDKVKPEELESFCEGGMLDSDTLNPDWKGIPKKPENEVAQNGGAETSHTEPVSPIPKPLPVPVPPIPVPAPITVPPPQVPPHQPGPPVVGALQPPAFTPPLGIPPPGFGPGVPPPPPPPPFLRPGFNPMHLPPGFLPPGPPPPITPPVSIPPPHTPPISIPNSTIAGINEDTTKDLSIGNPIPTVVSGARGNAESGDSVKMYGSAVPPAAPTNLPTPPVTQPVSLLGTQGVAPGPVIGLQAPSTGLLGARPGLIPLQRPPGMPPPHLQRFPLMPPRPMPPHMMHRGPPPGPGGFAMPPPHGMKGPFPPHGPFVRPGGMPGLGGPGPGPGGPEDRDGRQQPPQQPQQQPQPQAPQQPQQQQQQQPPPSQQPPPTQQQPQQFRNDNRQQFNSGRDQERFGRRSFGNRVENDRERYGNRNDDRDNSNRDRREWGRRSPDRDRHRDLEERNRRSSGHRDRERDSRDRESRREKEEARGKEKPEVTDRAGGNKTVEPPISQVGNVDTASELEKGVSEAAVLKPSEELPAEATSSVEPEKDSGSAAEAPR
UniProt O00767: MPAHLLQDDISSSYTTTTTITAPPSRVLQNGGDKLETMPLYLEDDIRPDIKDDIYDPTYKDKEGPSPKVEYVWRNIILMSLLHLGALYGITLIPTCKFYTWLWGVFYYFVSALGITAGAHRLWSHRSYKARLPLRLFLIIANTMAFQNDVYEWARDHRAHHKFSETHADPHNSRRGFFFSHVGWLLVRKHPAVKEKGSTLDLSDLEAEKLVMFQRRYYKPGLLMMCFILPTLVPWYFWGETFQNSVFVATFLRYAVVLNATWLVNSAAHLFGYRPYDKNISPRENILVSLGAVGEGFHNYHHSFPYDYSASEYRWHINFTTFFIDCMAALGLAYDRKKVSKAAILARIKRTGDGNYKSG
UniProt O95248: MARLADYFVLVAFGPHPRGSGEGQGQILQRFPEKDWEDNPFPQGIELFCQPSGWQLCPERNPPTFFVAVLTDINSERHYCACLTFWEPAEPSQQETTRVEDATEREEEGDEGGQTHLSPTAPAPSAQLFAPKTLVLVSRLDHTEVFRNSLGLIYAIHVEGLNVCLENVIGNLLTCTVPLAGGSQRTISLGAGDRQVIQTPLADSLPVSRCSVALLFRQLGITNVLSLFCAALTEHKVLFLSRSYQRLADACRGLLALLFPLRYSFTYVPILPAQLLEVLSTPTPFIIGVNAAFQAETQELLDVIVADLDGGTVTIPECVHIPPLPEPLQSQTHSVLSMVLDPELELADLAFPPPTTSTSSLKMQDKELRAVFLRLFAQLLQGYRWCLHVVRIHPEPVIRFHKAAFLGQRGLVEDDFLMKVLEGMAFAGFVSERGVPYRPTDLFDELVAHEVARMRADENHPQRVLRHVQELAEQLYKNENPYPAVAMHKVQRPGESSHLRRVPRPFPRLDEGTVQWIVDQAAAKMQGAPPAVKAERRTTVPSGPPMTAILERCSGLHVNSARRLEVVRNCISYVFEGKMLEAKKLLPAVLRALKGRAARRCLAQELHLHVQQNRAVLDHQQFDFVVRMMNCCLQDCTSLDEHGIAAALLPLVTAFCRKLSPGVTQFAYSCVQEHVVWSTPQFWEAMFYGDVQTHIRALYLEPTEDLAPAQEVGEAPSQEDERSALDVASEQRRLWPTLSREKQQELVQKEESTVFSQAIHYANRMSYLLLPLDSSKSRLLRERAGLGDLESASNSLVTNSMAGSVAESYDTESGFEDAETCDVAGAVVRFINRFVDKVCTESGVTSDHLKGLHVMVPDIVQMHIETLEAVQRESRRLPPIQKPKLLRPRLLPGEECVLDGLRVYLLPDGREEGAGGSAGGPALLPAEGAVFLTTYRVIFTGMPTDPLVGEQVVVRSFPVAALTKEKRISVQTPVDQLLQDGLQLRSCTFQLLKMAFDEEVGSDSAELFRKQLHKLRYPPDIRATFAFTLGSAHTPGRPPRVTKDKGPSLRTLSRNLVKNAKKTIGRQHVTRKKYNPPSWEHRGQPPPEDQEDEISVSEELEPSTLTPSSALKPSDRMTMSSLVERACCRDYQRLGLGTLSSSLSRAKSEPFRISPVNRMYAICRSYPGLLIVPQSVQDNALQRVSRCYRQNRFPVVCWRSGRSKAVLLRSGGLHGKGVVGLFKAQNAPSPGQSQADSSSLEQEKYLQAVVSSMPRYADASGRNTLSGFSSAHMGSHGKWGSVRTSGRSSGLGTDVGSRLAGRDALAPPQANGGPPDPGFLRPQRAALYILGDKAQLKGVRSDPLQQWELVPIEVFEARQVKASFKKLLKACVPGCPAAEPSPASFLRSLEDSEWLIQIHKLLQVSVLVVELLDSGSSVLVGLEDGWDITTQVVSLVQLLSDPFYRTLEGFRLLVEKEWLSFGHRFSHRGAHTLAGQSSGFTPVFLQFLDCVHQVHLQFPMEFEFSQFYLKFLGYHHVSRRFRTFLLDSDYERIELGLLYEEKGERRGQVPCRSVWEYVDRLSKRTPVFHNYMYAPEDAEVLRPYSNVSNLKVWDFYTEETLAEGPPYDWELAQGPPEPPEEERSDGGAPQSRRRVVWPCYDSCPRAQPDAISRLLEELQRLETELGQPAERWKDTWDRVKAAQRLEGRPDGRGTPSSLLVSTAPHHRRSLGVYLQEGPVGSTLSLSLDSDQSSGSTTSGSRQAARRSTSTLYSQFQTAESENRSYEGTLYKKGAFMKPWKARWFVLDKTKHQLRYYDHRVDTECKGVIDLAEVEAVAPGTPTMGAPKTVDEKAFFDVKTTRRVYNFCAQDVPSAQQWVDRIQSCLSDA
UniProt O14828: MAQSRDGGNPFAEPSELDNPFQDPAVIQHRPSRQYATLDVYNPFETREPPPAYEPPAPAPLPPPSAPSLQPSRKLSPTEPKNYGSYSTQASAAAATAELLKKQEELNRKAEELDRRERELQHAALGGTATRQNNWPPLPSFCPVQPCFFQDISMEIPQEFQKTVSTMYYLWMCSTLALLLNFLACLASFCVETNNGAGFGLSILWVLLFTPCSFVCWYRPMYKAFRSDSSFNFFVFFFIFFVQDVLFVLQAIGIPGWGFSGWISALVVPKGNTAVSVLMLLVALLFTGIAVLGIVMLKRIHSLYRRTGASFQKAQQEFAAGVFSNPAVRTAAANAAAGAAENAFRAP
UniProt Q9BW04: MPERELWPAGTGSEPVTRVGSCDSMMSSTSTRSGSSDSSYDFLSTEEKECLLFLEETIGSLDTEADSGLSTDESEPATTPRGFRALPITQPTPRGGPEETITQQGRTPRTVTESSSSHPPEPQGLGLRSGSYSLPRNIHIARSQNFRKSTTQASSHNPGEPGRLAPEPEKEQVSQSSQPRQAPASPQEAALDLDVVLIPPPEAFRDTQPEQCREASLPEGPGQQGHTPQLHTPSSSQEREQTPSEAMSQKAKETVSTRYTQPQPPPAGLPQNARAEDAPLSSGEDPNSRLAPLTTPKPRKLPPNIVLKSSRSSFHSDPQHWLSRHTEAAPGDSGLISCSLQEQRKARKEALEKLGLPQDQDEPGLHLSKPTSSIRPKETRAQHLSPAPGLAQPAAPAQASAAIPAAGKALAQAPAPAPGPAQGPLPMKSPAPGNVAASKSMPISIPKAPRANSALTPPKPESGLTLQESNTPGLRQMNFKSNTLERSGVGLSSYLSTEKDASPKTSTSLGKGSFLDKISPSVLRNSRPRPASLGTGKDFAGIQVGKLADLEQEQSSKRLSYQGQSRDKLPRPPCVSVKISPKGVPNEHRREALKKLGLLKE

[1] = compound: C/C(=N\NC(=O)C1=CC(=CC=C1)S(=O)(=O)N2CCOCC2)/C3=C(C=CC(=C3)Cl)O
In short: as §1

[2] = compound: C1=CC(=CC=C1C2=NC3=C(N2)C=C(C=C3)C(=O)N)OC4=CC=C(C=C4)Cl
In short: as §1

[3] = compound: C1=CC2=C(C=CC(=C2)/C=C\3/C(=O)NC(=NCC4=CC=CS4)S3)N=C1
In short: as §1

[4] = compound: C1=CC2=NC=CN=C2C=C1/C=C/3\C(=O)NC(=O)S3
In short: as §1

[5] = compound: C1=CC=C(C=C1)C2=NC(=C(N2)C3=CC=NC=C3)C4=CC(=C(C=C4)Cl)O
In short: as §1

[6] = compound: C1=CC=C2C(=C1)C3=NNC4=CC=CC(=C43)C2=O
In short: as §1

[7] = compound: C1CCN(C1)C(=O)NC2=CC=CC(=C2)NC3=NC=C(C(=N3)NCCC4=CN=CN4)Br
In short: as §1

[8] = compound: C1CN(CCC1(CC2=CC=C(C=C2)Cl)N)C3=NC=NC4=C3C=CN4
In short: as §1

IRAK-1-4 Inhibitor I = compound: C1COCCN1CCN2C3=CC=CC=C3N=C2NC(=O)C4=CC(=CC=C4)[N+](=O)[O-] [IRAK-1-4 Inhibitor I]
In short: as §1

ibrutinib = compound: C=CC(=O)N1CCC[C@@H](n2nc(-c3ccc(Oc4ccccc4)cc3)c3c(N)ncnc32)C1 [ibrutinib]
In short: as §1

[9] = compound: CC(=O)c1cnc2ccc(-c3cc(Cl)c(O)c(Cl)c3)nc2c1N[C@H]1CC[C@H](CN(C)C)CC1
In short: as §1

ralimetinib = compound: CC(C)(C)Cn1c(N)nc2ccc(-c3[nH]c(C(C)(C)C)nc3-c3ccc(F)cc3)nc21 [ralimetinib]
In short: as §1

[10] = compound: CC(C)(O)CC(=O)NCCn1ccc2ncnc(Nc3ccc(Oc4cccc(C(F)(F)F)c4)c(Cl)c3)c21
In short: as §1

[11] = compound: CC(C)C1=C2N=C(C=C(N2N=C1)NCC3=CC=CC=C3)NCCCCCCN
In short: as §1

[12] = compound: CC1=C(C(CC(=O)N1)C2=CC=C(C=C2)C(F)(F)F)C(=O)NC3=C(C=C4C(=C3)C=NN4)F
In short: as §1

[13] = compound: CC1=C(C2=C(C=C1)C(=O)C3=CC=CC=C3N2CCCN)C
In short: as §1

[14] = compound: CC1=C(C=C(C=C1)NC(=O)C2=CC(=CC=C2)C(C)(C)C#N)NC3=CC4=C(C=C3)N=CN(C4=O)C
In short: as §1

[15] = compound: CC1=C(C=C(C=C1)NC(=O)C2=CC(=CC=C2)N(C)C)NC(=O)C3=CC=C(C=C3)O
In short: as §1

[16] = compound: CC1=CC=C(C=C1)SC2=C3C=C(SC3=CN=C2)C(=O)N
In short: as §1

Measured: log2 fold change

SBDS (UniProt Q9Y3A5)
inactive: erlotinib 0.016 | [1] -0.007 | [2] 0.008 | [3] 0.023 | [4] -0.009 | [5] 0.005 | [6] 0.014 | [7] -0.017 | [8] -0.011 | IRAK-1-4 Inhibitor I 0.014 | ibrutinib -0.047 | [9] -0.037 | ralimetinib -0.015 | [10] -0.01 | [11] -0.004 | [12] -0.02 | [13] 0.004 | [14] 0.029 | [15] -0.026 | [16] -0.012

SDSL (UniProt Q96GA7)
inactive: erlotinib -0.014 | [1] -0.071 | [2] 0.002 | [3] -0.009 | [4] -0.004 | [5] -0.005 | [6] 0.063 | [7] -0.009 | [8] -0.04 | IRAK-1-4 Inhibitor I -0.032 | ibrutinib 0.048 | [9] -0.018 | ralimetinib 0.007 | [10] 0.024 | [11] -0.01 | [12] -0.005 | [13] -0.033 | [14] 0.128 | [15] -0.041 | [16] 0.018

SDF2L1 (UniProt Q9HCN8)
inactive: erlotinib -0.008 | [1] -0.03 | [2] 0.022 | [3] -0.032 | [4] -0.01 | [5] -0.022 | [6] 0.018 | [7] 0.056 | [8] -0.002 | IRAK-1-4 Inhibitor I 0.005 | ibrutinib 0.018 | [9] 0.007 | ralimetinib 0.081 | [10] -0.001 | [11] -0.002 | [12] -0.002 | [13] 0.005 | [14] 0.013 | [15] 0.006 | [16] 0.004

SEC24C (UniProt P53992)
inactive: erlotinib 0.04 | [1] -0.032 | [2] 0.016 | [3] -0.014 | [4] -0.014 | [5] 0.007 | [6] -0.026 | [7] -0.013 | [8] 0.008 | IRAK-1-4 Inhibitor I 0.006 | ibrutinib -0.004 | [9] -0.018 | ralimetinib 0.011 | [10] 0.002 | [11] 0.011 | [12] -0.004 | [13] 0.009 | [14] -0.005 | [15] -0.004 | [16] 0.002

SENP8 (UniProt Q96LD8)
inactive: erlotinib -0.03 | [1] 0.061 | [2] 0.034 | [3] 0.031 | [4] 0.044 | [5] -0.042 | [6] -0.136 | [7] 0.07 | [8] -0.081 | IRAK-1-4 Inhibitor I -0.023 | ibrutinib 0.13 | [9] 0.016 | ralimetinib -0.111 | [10] -0.037 | [11] -0.08 | [12] 0.233 | [13] 0.14 | [14] 0.019 | [15] 0.108 | [16] 0.04

SCAMP4 (UniProt Q969E2)
inactive: erlotinib -0.008 | [1] 0.011 | [2] 0.046 | [3] 0.06 | [4] 0.052 | [5] 0.039 | [6] -0.082 | [7] -0.056 | [8] 0.009 | IRAK-1-4 Inhibitor I 0.01 | ibrutinib 0 | [9] -0.054 | ralimetinib 0.034 | [10] -0.001 | [11] 0.007 | [12] 0.01 | [13] 0.007 | [14] 0.004 | [15] -0.007 | [16] -0.035

SDHC (UniProt Q99643)
inactive: erlotinib 0.013 | [1] 0.002 | [2] 0.001 | [3] 0 | [4] -0.048 | [5] -0.01 | [6] 0.02 | [7] -0.02 | [8] -0.067 | IRAK-1-4 Inhibitor I 0.032 | ibrutinib 0.033 | [9] -0.012 | ralimetinib 0.064 | [10] -0.035 | [11] -0.05 | [12] -0.015 | [13] -0.013 | [14] -0.026 | [15] 0.023 | [16] 0.044

SCAF4 (UniProt O95104)
inactive: erlotinib 0.049 | [1] 0.021 | [2] 0.039 | [3] 0 | [4] -0.038 | [5] -0.007 | [6] -0.069 | [7] -0.034 | [8] 0.025 | IRAK-1-4 Inhibitor I -0.04 | ibrutinib 0 | [9] 0.041 | ralimetinib 0.01 | [10] -0.029 | [11] -0.003 | [12] 0.005 | [13] -0.004 | [14] -0.042 | [15] 0.045 | [16] -0.003

SCFD1 (UniProt Q8WVM8)
inactive: erlotinib 0.002 | [1] -0.003 | [2] 0.017 | [3] -0.001 | [4] -0.016 | [5] -0.035 | [6] -0.04 | [7] -0.013 | [8] 0.018 | IRAK-1-4 Inhibitor I 0 | ibrutinib 0.006 | [9] 0.007 | ralimetinib -0.001 | [10] -0.009 | [11] 0.016 | [12] 0.019 | [13] 0.023 | [14] -0.023 | [15] 0.011 | [16] -0.001

SAMSN1 (UniProt Q9NSI8)
inactive: erlotinib -0.018 | [1] -0.087 | [2] -0.011 | [3] 0 | [4] -0.035 | [5] -0.002 | [6] 0.017 | [7] -0.011 | [8] -0.009 | IRAK-1-4 Inhibitor I 0.01 | ibrutinib 0.005 | [9] 0.011 | ralimetinib 0.007 | [10] -0.015 | [11] -0.011 | [12] -0.028 | [13] 0.016 | [14] 0.013 | [15] -0.026 | [16] -0.001

SCAF8 (UniProt Q9UPN6)
inactive: erlotinib 0.067 | [1] 0.005 | [2] 0.039 | [3] -0.011 | [4] -0.051 | [5] -0.027 | [6] 0.007 | [7] -0.051 | [8] 0.015 | IRAK-1-4 Inhibitor I 0.002 | ibrutinib 0.026 | [9] -0.006 | ralimetinib 0.02 | [10] -0.002 | [11] 0.016 | [12] -0.001 | [13] 0.001 | [14] -0.074 | [15] 0.01 | [16] 0.024

2 consecutive entries already listed:
SDHC (UniProt Q99643)
inactive: erlotinib 0.013 | [1] 0.002 | [2] 0.001 | [3] 0 | [4] -0.048 | [5] -0.01 | [6] 0.02 | [7] -0.02 | [8] -0.067 | IRAK-1-4 Inhibitor I 0.032 | ibrutinib 0.033 | [9] -0.012 | ralimetinib 0.064 | [10] -0.035 | [11] -0.05 | [12] -0.015 | [13] -0.013 | [14] -0.026 | [15] 0.023 | [16] 0.044

SCAF4 (UniProt O95104)
inactive: erlotinib 0.049 | [1] 0.021 | [2] 0.039 | [3] 0 | [4] -0.038 | [5] -0.007 | [6] -0.069 | [7] -0.034 | [8] 0.025 | IRAK-1-4 Inhibitor I -0.04 | ibrutinib 0 | [9] 0.041 | ralimetinib 0.01 | [10] -0.029 | [11] -0.003 | [12] 0.005 | [13] -0.004 | [14] -0.042 | [15] 0.045 | [16] -0.003

(listing goes on)

SCLY (UniProt Q96I15)
inactive: erlotinib -0.007 | [1] -0.004 | [2] 0.034 | [3] 0.062 | [4] -0.037 | [5] -0.03 | [6] -0.012 | [7] -0.049 | [8] 0.01 | IRAK-1-4 Inhibitor I -0.01 | ibrutinib -0.018 | [9] 0.006 | ralimetinib 0.025 | [10] -0.02 | [11] 0.012 | [12] -0.002 | [13] -0.009 | [14] -0.013 | [15] -0.014 | [16] -0.004

SCD (UniProt O00767)
inactive: erlotinib 0.075 | [1] -0.093 | [2] 0.027 | [3] 0.056 | [4] -0.012 | [5] 0.009 | [6] 0.011 | [7] -0.24 | [8] -0.021 | IRAK-1-4 Inhibitor I 0.07 | ibrutinib -0.06 | [9] -0.053 | ralimetinib 0.059 | [10] -0.009 | [11] -0.052 | [12] 0.032 | [13] 0.047 | [14] 0.02 | [15] -0.085 | [16] -0.128

SBF1 isoform 4 (UniProt O95248)
inactive: erlotinib 0.033 | [1] -0.059 | [2] 0.042 | [3] -0.052 | [4] -0.005 | [5] -0.027 | [6] -0.029 | [7] 0.028 | [8] -0.026 | IRAK-1-4 Inhibitor I -0.002 | ibrutinib 0.086 | [9] 0.116 | ralimetinib 0 | [10] -0.021 | [11] -0.079 | [12] 0.045 | [13] -0.039 | [14] -0.012 | [15] 0.054 | [16] 0.079

SCAMP3 isoform 2 (UniProt O14828)
inactive: erlotinib -0.108 | [1] 0 | [2] -0.043 | [3] 0.104 | [4] 0.072 | [5] 0.154 | [6] 0.028 | [7] -0.187 | [8] -0.31 | IRAK-1-4 Inhibitor I 0.023 | ibrutinib -0.086 | [9] 0.108 | ralimetinib 0.085 | [10] -0.118 | [11] -0.351 | [12] -0.049 | [13] -0.173 | [14] -0.074 | [15] -0.034 | [16] -0.107

SARG (UniProt Q9BW04)
inactive: erlotinib 0.017 | [1] 0.093 | [2] 0.055 | [3] -0.114 | [4] -0.004 | [5] -0.003 | [6] -0.156 | [7] 0 | [8] 0.007 | IRAK-1-4 Inhibitor I 0.002 | ibrutinib 0.016 | [9] -0.005 | ralimetinib 0.008 | [10] 0.002 | [11] 0.023 | [12] -0.012 | [13] -0.033 | [14] 0.005 | [15] -0.029 | [16] -0.06
